Experimental data: PubChem BioAssay AID652259 (Drosophila RNAi Screening Center, 2013)

- Screen: 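Genome-wide hunt for genes that control Wingless pathway activity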 (primary screen)
- System: Drosophila clone 8 imaginal disc epithelial cells
- Reagents: long dsRNA against Drosophila genes
- Conditions: pathway stimulated by co-transfected Wingless expression plasmid
- Read-out: 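Firefly luciferase from a tcf-site Wingless reporter, measured alongside co-transfected Renilla luciferase that tracks transfection; pathway stimulated by a Wingless plasmid; the firefly-to-Renilla ratio is not deposited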
- Direction: firefly reporter light: higher = more Wg reporter light, before normalisation; Renilla control light: higher = more transfected or surviving cells
- Rule for the call: 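a knock-down is a candidate when at least two out of four statistical tests show it departing from its plate mean; one test alone signals a weak candidate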
- Calls: active = candidate regulator (raises or lowers reporter); inactive = not a candidate
The deposit covers about 22,000 reagents; shown is a random part of those with a known target gene and a result. In the full data, 233 (1.1%) are marked active. 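Light values are raw, unnormalised plate reads; the ratio scores behind the reporter calls were not deposited.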 A plus sign joins genes that one reagent is predicted to hit. Not given: the amount of reagent, the time to read-out, the dose of the treatment.

no.	gene knocked down	DRSC id	reporter change call, replicate 1	firefly reporter light, replicate 1	firefly reporter light, replicate 2	Renilla control light, replicate 1	Renilla control light, replicate 2	outcome
1	ssx	DRSC18492		2337	7105	731	837	inactive
2	Fbxo42 (F-box protein 42)	DRSC04529		11037		2587		inactive
3	Wnt10 (Wnt oncogene analog 10)	DRSC00990		21804		10204		inactive
4	Wnt10 (Wnt oncogene analog 10)	DRSC02797		2170	4984	605	1890	inactive
5	CG5347	DRSC19942		28154		11716		inactive
6	Rat1 (Rat1 5'-3' exoribonuclease)	DRSC02044		8100		3865		inactive
7	Npc2c (Niemann-Pick type C-2c)	DRSC15523		17088		4306		inactive
8	CG13561	DRSC04199		4291	10154	1017	3476	inactive
9	Eip78C (Ecdysone-induced protein 78C)	DRSC11864	Wg reporter activity raised	15394		1347		active
10	CG31140	DRSC13649		6298		1692		inactive
11	CG31140	DRSC14603		4513	8208	1641	2507	inactive
12	CG31140	DRSC15904		22913		18289		inactive
13	TBC1d7 + mRpS24	DRSC14611		17973		14388		inactive
14	CG8128	DRSC20084		2661	6304	1288	3142	inactive
15	Ssl2 (Strictosidine synthase-like 2)	DRSC14395		9532		3882		inactive
16	Ssl2 (Strictosidine synthase-like 2)	DRSC22796		5.31e5	6.66e5	2.32e5	3.10e5	inactive
17	Rrp46	DRSC15537		19901		3780		inactive
18	Or85e (Odorant receptor 85e)	DRSC16768		12876		4746		inactive
19	dpr15 (defective proboscis extension response 15)	DRSC12891		3116		1312		inactive
20	dpr15 (defective proboscis extension response 15)	DRSC14187		10824		3849		inactive
21	dpr15 (defective proboscis extension response 15)	DRSC14188		20027		4755		inactive
22	RpL29 (Ribosomal protein L29)	DRSC04650		3243	4864	677	1873	inactive
23	mew (multiple edematous wings)	DRSC18971		3819		450		inactive
24	mew (multiple edematous wings)	DRSC20352		22507		9120		inactive
25	ArfGAP1 (ADP-ribosylation factor GTPase activating protein 1)	DRSC11173		6705		2473		inactive
26	CG14302	DRSC14781		19052		4067		inactive
27	Zfrp8 (Zinc finger protein RP-8)	DRSC04352		1456	5812	339	2346	inactive
28	Rsf1 (Repressor splicing factor 1)	DRSC03423		5216	10373	1072	3730	inactive
29	Rsf1 (Repressor splicing factor 1)	DRSC21953		4.82e5	5.26e5	1.91e5	2.22e5	inactive
30	CG14309	DRSC14788		9312		1906		inactive
31	Sgf11 (SAGA associated factor 11kDa)	DRSC09987		7164		2918		inactive
32	tefu (telomere fusion)	DRSC16060		8888		3143		inactive
33	asRNA:CR42743 + CG34162	DRSC01190		17484		9411		inactive
34	aspr (asperous)	DRSC20689		11380		8428		inactive
35	aspr (asperous)	DRSC20690		16374		9485		inactive
36	Sap130 (Sin3A-associated protein 130)	DRSC09680		4764		2129		inactive
37	RhoGAP102A (Rho GTPase activating protein at 102A)	DRSC17110		2572		1203		inactive
38	RhoGAP102A (Rho GTPase activating protein at 102A)	DRSC17145		21922		13217		inactive
39	CG7148	DRSC11802		5207		2400		inactive
40	CG4497	DRSC02754		9341		4291		inactive
41	c(3)G (crossover suppressor on 3 of Gowen)	DRSC15245		3084	5332	1766	1461	inactive
42	Klp54D (Kinesin-like protein at 54D)	DRSC07450		6247		3043		inactive
43	lncRNA:CR42859 (long non-coding RNA:CR42859)	DRSC00103		17029		12444		inactive
44	CG7970	DRSC08605		13865		3634		inactive
45	CG4269	DRSC04457		2468	6368	553	2138	inactive
46	PGRP-SC1b (Peptidoglycan recognition protein SC1b)	DRSC07215		7389		3256		inactive
47	CG10492	DRSC02064		9737		483		inactive
48	hts (hu li tai shao)	DRSC05791		15629		7110		inactive
49	m (miniature)	DRSC20181		17459		9723		inactive
50	ear (ENL/AF9-related)	DRSC15675		6468		2354		inactive
51	Gagr (Gag-related)	DRSC10441		5411		2214		inactive
52	VhaM9.7-a (Vacuolar H[+] ATPase M9.7 subunit a)	DRSC08289		6624		3297		inactive
53	CG31730	DRSC01308		20322		9655		inactive
54	CG15155	DRSC02456		2118	6969	1113	2657	inactive
55	IscU (Iron-sulfur cluster assembly enzyme)	DRSC16572		11244		3875		inactive
56	Acsx1R (Acyl-CoA synthetase X1 R)	DRSC14339		19197		3840		inactive
57	CG4950	DRSC10463		7713		3773		inactive
58	Tgt (tRNA-guanine transglycosylase)	DRSC00672		7272		2517		inactive
59	CG4360	DRSC15566		18082		4161		inactive
60	lncRNA:CR32658 (long non-coding RNA:CR32658)	DRSC19402		20519		10776		inactive
61	CG8569	DRSC07214		6306		1820		inactive
62	CG31245	DRSC15498		12053		2581		inactive
63	MICAL-like	DRSC09829		4816		1671		inactive
64	CG5541	DRSC19946		3089	9002	1226	4337	inactive
65	CG3021	DRSC18165		18364		10465		inactive
66	CG3021	DRSC18652		22864		15677		inactive
67	CG14329	DRSC14808		21398		4423		inactive
68	Sec8 (Secretory 8)	DRSC12300		5668		2554		inactive
69	CG1894	DRSC15396		9058		2960		inactive
70	ADD1 (ADD domain-containing protein 1)	DRSC07135		6336		2181		inactive
71	SRPK (SR Protein Kinase)	DRSC07090		19059		1869		inactive
72	Ugt303B2 (UDP-glycosyltransferase family 303 member B2)	DRSC14198		26137		23578		inactive
73	Ugt303B2 (UDP-glycosyltransferase family 303 member B2)	DRSC22864		5.35e5	4.88e5	2.33e5	2.46e5	inactive

No new results follow: 5 of the entries above.
no.	gene knocked down	DRSC id	reporter change call, replicate 1	firefly reporter light, replicate 1	firefly reporter light, replicate 2	Renilla control light, replicate 1	Renilla control light, replicate 2	outcome
67	CG14329	DRSC14808		21398		4423		inactive
68	Sec8 (Secretory 8)	DRSC12300		5668		2554		inactive
69	CG1894	DRSC15396		9058		2960		inactive
70	ADD1 (ADD domain-containing protein 1)	DRSC07135		6336		2181		inactive
71	SRPK (SR Protein Kinase)	DRSC07090		19059		1869		inactive
